These are yes or no findings as the source states them, for the method shown. In cells and extracts the contact can be indirect. Some results given as binding are weak or reduced against the parent protein; the word gives no strength.

The chains behind the UniProt entries cited, without tags or fusion partners.
UniProt P41229: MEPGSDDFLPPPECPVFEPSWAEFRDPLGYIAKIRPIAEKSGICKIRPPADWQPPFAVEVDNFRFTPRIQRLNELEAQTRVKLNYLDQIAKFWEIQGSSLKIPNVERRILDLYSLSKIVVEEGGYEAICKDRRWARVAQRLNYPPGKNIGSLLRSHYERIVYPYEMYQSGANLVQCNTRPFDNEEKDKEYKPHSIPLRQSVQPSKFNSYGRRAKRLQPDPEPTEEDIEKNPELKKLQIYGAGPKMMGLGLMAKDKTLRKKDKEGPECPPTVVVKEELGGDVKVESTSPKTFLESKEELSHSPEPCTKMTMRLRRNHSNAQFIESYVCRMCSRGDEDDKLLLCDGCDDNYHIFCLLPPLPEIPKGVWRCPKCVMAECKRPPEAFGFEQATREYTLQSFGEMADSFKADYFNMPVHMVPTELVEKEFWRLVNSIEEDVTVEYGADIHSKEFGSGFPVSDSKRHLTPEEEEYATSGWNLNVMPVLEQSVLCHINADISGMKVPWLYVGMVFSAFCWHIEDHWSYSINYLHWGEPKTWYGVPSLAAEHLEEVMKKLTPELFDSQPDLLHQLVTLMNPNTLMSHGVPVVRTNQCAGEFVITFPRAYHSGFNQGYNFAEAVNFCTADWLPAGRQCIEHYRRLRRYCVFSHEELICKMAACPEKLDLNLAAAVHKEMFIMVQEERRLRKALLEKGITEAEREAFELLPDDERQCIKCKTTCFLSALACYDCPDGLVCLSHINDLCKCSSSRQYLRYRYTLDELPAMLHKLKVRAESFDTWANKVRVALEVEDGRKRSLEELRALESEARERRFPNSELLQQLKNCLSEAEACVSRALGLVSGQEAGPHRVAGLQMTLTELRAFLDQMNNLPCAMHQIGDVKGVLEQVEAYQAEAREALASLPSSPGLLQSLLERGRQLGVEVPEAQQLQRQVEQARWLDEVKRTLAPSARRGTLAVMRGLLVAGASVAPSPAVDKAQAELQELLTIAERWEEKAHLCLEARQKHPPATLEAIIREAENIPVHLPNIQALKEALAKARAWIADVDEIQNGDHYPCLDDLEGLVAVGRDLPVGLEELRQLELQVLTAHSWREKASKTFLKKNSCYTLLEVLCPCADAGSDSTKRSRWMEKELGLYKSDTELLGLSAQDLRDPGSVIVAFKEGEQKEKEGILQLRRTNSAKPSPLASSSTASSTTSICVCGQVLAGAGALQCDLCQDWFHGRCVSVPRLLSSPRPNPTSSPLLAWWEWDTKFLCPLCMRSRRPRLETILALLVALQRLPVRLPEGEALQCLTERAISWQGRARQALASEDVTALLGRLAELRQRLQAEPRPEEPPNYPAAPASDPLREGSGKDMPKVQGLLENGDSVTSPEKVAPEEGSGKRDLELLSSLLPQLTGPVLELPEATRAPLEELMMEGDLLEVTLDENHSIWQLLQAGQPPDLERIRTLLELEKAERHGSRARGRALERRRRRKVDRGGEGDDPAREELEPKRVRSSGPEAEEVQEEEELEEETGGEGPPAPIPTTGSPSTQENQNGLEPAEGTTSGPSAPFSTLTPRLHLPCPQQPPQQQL
UniProt P12004: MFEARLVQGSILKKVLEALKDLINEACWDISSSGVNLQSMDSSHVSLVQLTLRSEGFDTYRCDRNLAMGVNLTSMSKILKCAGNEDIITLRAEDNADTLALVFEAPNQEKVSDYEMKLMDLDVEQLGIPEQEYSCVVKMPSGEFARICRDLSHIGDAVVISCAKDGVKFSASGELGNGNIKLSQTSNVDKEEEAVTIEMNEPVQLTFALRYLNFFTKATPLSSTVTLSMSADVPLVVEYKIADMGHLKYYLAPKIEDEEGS

This note sets out measurements from paper PMC3212929.

The experiment has as its target SMCX (Smcy homolog, X-linked (mouse)) histone demethylase, normal SMCX (UniProt P41229). The experiment is described as follows: co-IP; chromatin lysates of 293T cells transfected with the SMCX plasmid; immunoprecipitated with anti-SMCX or anti-PCNA (control normal IgG) at 4°C overnight, protein G plus/protein A agarose; some lysates pretreated with DNAse; western blot.

For “proliferating cell nuclear antigen (PCNA) (from UniProt P12004 1-261)”, the binding entry is on record as “binds”.
